Measured values published in the supplement of paper PMC11732987, “Enantioselective OTUD7B fragment discovery through chemoproteomics screening and high-throughput optimisation” (Communications Chemistry, 2025).
This is one part of the list. The data scatter; read single values as rough.

Protein sequences, listed by entry. Tags and fused reporters are not part of them. Lines headed by an entry give the natural chain unless they say otherwise; changes in a name come on top. Residues count along the entry.
UniProt Q9H4L4, 232-259: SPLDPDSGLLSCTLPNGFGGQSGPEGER
UniProt A3KN83: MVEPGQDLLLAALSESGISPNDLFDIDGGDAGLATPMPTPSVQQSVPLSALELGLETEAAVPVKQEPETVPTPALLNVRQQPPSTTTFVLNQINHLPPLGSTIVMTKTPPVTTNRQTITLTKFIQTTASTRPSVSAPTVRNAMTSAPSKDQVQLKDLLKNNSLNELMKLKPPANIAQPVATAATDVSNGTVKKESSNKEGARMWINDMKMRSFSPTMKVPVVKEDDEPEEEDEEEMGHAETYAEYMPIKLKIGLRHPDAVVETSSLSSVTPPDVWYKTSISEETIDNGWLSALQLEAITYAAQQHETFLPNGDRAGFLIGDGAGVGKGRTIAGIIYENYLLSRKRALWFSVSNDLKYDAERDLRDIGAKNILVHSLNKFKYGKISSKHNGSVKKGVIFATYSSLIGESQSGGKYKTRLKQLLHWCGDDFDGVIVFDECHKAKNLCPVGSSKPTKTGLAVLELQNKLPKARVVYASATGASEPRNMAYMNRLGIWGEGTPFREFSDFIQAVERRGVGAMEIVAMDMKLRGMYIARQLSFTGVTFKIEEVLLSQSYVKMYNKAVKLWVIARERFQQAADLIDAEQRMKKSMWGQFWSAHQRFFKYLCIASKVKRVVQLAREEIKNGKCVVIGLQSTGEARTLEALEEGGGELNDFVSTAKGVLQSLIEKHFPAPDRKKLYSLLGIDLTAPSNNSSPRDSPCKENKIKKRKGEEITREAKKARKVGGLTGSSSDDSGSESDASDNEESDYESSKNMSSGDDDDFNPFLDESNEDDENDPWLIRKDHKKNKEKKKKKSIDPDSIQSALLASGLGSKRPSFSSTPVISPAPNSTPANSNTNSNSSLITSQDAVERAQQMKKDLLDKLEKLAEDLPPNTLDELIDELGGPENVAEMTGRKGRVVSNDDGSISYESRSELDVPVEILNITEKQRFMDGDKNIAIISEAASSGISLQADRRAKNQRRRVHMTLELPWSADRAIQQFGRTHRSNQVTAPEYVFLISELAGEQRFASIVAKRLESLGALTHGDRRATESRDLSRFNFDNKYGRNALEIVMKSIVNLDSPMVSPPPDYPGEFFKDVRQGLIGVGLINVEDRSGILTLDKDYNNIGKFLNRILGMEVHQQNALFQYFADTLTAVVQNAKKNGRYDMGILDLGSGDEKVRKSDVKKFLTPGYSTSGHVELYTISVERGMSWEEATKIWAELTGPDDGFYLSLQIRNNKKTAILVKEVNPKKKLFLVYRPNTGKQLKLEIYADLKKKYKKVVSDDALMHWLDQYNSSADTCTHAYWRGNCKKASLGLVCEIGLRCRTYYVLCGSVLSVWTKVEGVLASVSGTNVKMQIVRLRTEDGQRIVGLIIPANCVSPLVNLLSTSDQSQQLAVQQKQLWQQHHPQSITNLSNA
UniProt Q9HB40: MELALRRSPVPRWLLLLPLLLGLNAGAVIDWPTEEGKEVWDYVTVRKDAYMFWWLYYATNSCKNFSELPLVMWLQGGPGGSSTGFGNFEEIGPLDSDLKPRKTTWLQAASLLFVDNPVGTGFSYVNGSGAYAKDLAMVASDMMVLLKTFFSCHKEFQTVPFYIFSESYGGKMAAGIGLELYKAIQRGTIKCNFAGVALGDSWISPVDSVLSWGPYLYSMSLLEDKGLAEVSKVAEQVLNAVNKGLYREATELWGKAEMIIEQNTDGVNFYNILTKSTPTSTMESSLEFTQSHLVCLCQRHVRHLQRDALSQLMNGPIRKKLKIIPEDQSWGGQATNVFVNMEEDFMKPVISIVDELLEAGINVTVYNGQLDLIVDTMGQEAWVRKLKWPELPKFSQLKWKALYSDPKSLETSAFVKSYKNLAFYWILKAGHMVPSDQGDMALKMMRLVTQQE
UniProt Q9GZR1, 349-369: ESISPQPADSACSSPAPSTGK
UniProt O15304: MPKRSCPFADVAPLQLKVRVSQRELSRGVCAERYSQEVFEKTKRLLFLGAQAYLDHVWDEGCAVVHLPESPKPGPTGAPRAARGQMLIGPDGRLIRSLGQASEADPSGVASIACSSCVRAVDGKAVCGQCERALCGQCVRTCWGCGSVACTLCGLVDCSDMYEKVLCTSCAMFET
UniProt O95470, 279-303: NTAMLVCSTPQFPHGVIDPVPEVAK
UniProt Q86VW0, 614-639: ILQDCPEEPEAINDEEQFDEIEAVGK
UniProt Q9UPS6: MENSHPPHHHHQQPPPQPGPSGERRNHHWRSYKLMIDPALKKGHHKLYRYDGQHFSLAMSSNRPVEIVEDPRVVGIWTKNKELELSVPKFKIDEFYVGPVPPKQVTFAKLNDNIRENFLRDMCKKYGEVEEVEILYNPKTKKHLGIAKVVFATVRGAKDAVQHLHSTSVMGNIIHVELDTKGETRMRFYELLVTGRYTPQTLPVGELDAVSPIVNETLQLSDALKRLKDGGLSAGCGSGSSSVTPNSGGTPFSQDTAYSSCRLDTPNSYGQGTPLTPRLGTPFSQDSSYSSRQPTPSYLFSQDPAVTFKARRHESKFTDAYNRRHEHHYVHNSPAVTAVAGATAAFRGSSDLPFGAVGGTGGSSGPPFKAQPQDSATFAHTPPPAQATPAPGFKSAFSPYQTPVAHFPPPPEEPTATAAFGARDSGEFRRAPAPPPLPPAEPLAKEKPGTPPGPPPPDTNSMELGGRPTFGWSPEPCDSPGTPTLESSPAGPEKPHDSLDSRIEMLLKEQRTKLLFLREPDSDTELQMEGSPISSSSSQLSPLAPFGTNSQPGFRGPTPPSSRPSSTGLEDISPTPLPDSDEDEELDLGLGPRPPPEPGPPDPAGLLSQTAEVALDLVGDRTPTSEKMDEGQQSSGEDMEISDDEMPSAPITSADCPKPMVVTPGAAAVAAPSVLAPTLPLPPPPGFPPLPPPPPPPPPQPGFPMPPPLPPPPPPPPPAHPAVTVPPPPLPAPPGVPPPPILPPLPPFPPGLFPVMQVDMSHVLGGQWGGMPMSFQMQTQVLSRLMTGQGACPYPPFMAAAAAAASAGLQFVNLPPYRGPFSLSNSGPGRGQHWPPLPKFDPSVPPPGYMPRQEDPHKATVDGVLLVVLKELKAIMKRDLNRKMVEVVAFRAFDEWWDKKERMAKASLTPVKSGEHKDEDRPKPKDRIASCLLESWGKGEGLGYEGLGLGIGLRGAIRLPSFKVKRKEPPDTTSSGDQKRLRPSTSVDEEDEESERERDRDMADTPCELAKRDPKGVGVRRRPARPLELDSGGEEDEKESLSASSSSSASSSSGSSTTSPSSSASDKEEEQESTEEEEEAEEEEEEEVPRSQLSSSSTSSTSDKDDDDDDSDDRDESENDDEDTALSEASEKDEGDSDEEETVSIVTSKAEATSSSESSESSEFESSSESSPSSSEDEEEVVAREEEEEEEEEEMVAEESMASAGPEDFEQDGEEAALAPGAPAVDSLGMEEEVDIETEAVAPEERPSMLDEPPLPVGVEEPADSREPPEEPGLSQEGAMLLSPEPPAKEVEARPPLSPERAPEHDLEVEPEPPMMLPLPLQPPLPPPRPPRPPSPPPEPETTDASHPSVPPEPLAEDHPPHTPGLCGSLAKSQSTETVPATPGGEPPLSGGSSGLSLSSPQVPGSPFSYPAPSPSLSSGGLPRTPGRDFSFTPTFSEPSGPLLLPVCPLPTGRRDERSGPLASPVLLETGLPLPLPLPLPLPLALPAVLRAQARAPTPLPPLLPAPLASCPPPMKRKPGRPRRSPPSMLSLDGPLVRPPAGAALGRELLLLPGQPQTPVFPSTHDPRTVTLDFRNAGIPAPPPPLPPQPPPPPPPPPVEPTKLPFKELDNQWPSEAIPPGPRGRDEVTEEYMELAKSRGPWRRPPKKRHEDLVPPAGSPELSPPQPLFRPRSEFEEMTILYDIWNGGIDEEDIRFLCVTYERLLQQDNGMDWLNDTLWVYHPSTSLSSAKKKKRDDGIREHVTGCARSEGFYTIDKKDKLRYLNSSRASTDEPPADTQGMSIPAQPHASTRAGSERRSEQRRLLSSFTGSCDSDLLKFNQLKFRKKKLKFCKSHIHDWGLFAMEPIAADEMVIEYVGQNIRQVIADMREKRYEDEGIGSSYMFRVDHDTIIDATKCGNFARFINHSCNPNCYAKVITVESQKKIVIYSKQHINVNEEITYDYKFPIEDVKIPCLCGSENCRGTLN
UniProt Q92854, whole entry, looked up: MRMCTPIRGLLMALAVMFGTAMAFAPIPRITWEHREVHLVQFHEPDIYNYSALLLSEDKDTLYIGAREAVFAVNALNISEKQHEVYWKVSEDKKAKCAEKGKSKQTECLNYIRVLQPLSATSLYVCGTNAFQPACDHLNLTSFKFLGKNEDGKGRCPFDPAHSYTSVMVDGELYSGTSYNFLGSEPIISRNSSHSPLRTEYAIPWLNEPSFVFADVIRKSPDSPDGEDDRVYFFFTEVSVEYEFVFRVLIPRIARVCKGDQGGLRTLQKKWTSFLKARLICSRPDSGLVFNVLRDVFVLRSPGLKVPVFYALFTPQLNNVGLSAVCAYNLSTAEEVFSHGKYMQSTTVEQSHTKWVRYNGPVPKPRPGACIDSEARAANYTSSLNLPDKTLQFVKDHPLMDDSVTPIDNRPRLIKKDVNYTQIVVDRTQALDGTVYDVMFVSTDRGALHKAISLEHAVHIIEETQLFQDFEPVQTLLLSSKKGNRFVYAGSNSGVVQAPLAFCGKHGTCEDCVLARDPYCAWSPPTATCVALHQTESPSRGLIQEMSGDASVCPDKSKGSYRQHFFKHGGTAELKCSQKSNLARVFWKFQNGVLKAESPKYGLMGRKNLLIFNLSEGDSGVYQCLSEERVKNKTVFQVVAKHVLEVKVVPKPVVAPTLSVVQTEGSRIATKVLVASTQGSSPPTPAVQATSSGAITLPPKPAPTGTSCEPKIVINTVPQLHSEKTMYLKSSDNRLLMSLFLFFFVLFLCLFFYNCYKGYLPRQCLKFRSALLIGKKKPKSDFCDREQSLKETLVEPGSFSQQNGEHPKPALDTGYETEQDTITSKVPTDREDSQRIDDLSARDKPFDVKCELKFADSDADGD
UniProt O75446: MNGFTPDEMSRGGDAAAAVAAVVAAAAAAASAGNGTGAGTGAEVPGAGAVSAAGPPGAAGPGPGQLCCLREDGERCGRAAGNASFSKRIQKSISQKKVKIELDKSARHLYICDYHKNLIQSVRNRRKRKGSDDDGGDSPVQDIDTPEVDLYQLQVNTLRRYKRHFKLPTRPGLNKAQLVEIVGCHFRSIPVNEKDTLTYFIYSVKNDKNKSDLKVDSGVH
UniProt O75182: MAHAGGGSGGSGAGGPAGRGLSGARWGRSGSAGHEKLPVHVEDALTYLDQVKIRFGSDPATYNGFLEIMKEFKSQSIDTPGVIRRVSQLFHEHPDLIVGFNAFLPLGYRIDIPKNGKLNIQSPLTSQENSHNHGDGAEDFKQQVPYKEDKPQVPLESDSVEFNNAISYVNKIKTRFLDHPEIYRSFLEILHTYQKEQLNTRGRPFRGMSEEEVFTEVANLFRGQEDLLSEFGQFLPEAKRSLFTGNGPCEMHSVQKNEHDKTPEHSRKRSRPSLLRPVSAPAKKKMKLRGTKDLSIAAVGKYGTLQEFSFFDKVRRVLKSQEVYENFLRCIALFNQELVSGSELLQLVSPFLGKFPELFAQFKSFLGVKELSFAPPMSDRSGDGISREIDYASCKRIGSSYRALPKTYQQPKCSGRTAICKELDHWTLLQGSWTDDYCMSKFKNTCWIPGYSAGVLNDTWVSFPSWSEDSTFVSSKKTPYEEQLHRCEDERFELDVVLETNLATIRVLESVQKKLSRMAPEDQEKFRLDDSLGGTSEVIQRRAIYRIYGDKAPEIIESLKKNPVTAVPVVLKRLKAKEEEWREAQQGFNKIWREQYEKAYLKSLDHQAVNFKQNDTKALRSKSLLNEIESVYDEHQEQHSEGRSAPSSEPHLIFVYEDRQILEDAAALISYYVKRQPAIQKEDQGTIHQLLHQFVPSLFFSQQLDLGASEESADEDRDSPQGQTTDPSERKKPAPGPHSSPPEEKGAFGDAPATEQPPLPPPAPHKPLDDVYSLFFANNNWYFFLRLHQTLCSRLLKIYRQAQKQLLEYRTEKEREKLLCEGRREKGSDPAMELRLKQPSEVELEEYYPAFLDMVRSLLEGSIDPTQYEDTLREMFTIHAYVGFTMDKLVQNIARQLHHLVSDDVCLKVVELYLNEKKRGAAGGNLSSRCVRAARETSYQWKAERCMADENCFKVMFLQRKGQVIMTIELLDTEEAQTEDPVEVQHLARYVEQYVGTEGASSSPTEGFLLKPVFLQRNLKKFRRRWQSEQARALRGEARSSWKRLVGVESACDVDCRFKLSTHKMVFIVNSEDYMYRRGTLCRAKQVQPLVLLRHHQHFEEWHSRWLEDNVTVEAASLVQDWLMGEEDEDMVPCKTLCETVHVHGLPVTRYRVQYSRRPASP

Legend:
[1] = compound: ClCC(=O)N[C@@H]1CCCc2ccccc12; assay: log2 mean competition ratio of IA-DTB cysteine labelling (DMSO/compound) (log2 ratio); higher = stronger cysteine engagement by compound; details: treatment time: 4 h, cell line lysate: HEK293T
Method: (§1)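 IA-DTB competitive cysteine chemoproteomics in HEK293T RIPA lysate. Lysates were treated with compound 29 or 30 at 50 or 200 µM for 4 h, then IA-DTB (500 µM, 1 h), trypsin-digested, NeutrAvidin-enriched and analysed by diaPASEF. Competition ratio = intensity DMSO / intensity compound (n=4 treated, n=64 DMSO); binding: mean log2 CR ≥ 1 and p ≤ 0.05 plus QC filters. Target is the cysteine site.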

[2] = compound: ClCC(=O)N[C@H]1CCCc2ccccc12; assay: as above; details: treatment time: 4 h, cell line lysate: HEK293T
Method: as §1

Target	log2 mean competition ratio ([1]; 50 µM)	log2 mean competition ratio ([1]; 200 µM)	log2 mean competition ratio ([2]; 50 µM)	log2 mean competition ratio ([2]; 200 µM)
SIX5 C266 (UniProt Q8N196)	-0.0782	0.0461	0.00381	0.225
SENP3 C243 (UniProt Q9H4L4)	-0.36	0.317	-0.284	-0.0234
SBNO1 C445 (UniProt A3KN83)	0.255	-0.191	0.254	-0.265
SCPEP1 C152 (UniProt Q9HB40)	0.285	-0.373	0.052	-0.496
SETX C2618 (UniProt Q7Z333)	0.0212	0.184	-0.452	-0.242
SENP6 C360 (UniProt Q9GZR1)	0.00913	0.0862	0.00881	-0.124
SIVA1 C6 (UniProt O15304)	1.06	0.891	0.724	1.16
SGPL1 C285 (UniProt O95470)	-0.288	-0.48	0.195	-0.244
SH3BP1 C56 (UniProt Q9Y3L3)	0.151	-0.086	-0.308	-0.137
SESTD1 C618 (UniProt Q86VW0)	-0.253	-0.168	-0.821	-0.279
SDCCAG8 C34	0.758	0.17	0.591	-0.0164
SETD1B C1007 (UniProt Q9UPS6)	-0.175	0.0238	0.0337	0.115
SEMA4D C783 (UniProt Q92854)	-0.0598	0.0202	-0.342	-0.224
SAP30 C184 (UniProt O75446)	-0.000212	0.11	-0.162	0.0414
SIN3B C249 (UniProt O75182)	0.399	0.044	0.174	-0.0592
SF3B1 C1244 (UniProt O75533)	0.1	-0.313	0.493	-0.271

Some entries already given, limited to log2 mean competition ratio ([2]; 50 µM):
Target	log2 mean competition ratio ([2]; 50 µM)
SESTD1 C618 (UniProt Q86VW0)	-0.821
SDCCAG8 C34	0.591
